Experimental data as given in publication PMC4963926.
Results are given in words; binding and its absence hold for the method and conditions named. Sequences can lack the tags named with a protein.

T1: GST-E6AP (human ubiquitin ligase E6-associated protein) (human), Q05086
T1 chain: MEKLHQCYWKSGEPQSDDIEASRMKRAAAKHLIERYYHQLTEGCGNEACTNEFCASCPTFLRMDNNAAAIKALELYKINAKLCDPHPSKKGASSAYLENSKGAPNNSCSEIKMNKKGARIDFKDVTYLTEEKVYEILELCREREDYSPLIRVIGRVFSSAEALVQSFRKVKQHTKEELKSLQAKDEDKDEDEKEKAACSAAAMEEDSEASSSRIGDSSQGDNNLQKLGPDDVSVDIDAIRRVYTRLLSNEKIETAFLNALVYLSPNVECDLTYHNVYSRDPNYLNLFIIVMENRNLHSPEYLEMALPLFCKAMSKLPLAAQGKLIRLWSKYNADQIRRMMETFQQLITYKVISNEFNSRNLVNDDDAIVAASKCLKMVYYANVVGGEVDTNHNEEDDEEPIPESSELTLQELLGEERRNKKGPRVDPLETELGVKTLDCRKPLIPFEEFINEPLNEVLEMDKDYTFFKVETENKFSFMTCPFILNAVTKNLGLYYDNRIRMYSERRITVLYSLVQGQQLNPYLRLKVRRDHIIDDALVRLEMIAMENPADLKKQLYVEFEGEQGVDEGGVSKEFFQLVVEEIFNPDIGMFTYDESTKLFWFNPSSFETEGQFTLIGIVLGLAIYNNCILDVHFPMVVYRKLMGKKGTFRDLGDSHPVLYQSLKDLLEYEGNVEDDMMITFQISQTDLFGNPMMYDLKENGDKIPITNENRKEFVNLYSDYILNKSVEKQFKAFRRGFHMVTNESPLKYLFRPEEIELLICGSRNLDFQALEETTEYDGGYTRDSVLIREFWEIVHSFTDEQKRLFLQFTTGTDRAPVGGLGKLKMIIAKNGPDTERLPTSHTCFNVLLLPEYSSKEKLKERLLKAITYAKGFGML

B1: HPV11 His6-E6 protein, P04019 1-150 (protein)
chain: MESKDASTSATSIDQLCKTFNLSLHTLQIQCVFCRNALTTAEIYAYAYKNLKVVWRDNFPFAACACCLELQGKINQYRHFNYAAYAPTVEEETNEDILKVLIRCYLCHKPLCEIEKLKHILGKARFIKLNNQWKGRCLHCWTTCMEDLLP
B2: HPV11 His6-E6 protein (protein, UniProt P04019 1-150)
chain: B1 chain

Key:
[1] = molecular target: T1, GST-E6AP (human ubiquitin ligase …); test: pull-down; both purified; settings: remark: other sources report otherwise
[2] = molecular target: GST-p53 (UniProt P04637); test: pull-down; both purified

Binder	binding [1]	binding [2]
B1	no binding (tested: 50 ng of E6 protein)	–
B2	–	no binding (tested: 50 ng of E6 protein)
